Results reported in patent US11406709B2, “Therapeutic and research application of PDCL3” (TRUSTEES OF BOSTON UNIVERSITY, priority 2014, dated 2022).

B1: PDCL3: 239-amino acid human phosducin-like protein 3, SEQ ID NO: 1; expressed from cDNA in cells (protein, listed as Homo sapiens)
chain: MQDPNADTEWNDILRKKGILPPKESLKELEEEAEEEQRILQQSVVKTYEDMTLEELEDHEDEFNEEDERAIEMYRRRRLAEWKATKLKNKFGEVLEISGKDYVQEVTKAGEGLWVILHLYKQGIPLCALINQHLSGLARKFPDVKFIKAISTTCIPNYPDRNLPTIFVYLEGDIKAQFIGPLVFGGMNLTRDELEWKLSESGAIMTDLEENPKKPIEDVLLSSVRRSVLMKRDSDSEGD
modifications: Myc tag in some forms
notes: expressed from cDNA in cells
B2: acetylation resistant HA-tagged PDCL3: Mutant PDCL3 generated by removing the first methionine and adding HA tag (protein)
chain: QDPNADTEWNDILRKKGILPPKESLKELEEEAEEEQRILQQSVVKTYEDMTLEELEDHEDEFNEEDERAIEMYRRRRLAEWKATKLKNKFGEVLEISGKDYVQEVTKAGEGLWVILHLYKQGIPLCALINQHLSGLARKFPDVKFIKAISTTCIPNYPDRNLPTIFVYLEGDIKAQFIGPLVFGGMNLTRDELEWKLSESGAIMTDLEENPKKPIEDVLLSSVRRSVLMKRDSDSEGD
modifications: left off: small tags and cut ends

System: PAE cells
Test: CHX-chase assay of PDCL3 in hypoxic environment
Type: cell-based, porcine
Conditions: hypoxic environment 24 hours

Molecule	PDCL3 expression and stability in response to hypoxia
B1	upregulated by hypoxia and remains highly stable
B2	remained stable and hypoxia did significantly increased its expression
